Laboratory results reported in patent US20100168097A1, “Non-Nucleoside Reverse Transcriptase Inhibitors” (priority 2005, published 2010).
Some results were stated once for a whole list of compounds, not compound by compound.

How the values were obtained:
[1] = biological target: T1, mutant HIV reverse transcriptase, Y181C mutation (Human immunodeficiency virus type 1 group M subtype B, UniProt P04585, Y768C); test: Analogous RT inhibition assay, Y181C mutant; format: biochemical; conditions: tested up to 20 micromolar
T1 construct: made in house
Description: (§1) 100 μL reaction mixtures were initiated with a combination of primer-template substrate (10 nM final concentration) and dNTPs (0.6 μM dNTPs, 0.75 μM [^3H]-dGTP). The heterodimeric nucleic acid substrate was generated by annealing the DNA primer pD500 (described in Shaw-Reid et al., J. Biol. Chem., 278: 2777-2780; obtained from Integrated DNA Technologies) to t500, a 500 nucleotide RNA template created by in vitro transcription (see Shaw-Reid et al., J. Biol. Chem., 278: 2777-2780). After 1 hour incubation at 37° C., reactions were quenched by 10 μL streptavidin scintillation proximity assay beads (10 mg/mL, from Amersham Biosciences) in 0.5 M EDTA, pH 8. Microtiter plates were incubated an additional 10 minutes at 37° C. prior to quantification via Topcount (Packard).
(§2) Analogous assays were conducted substituting mutant HIV strains to determine the […] inhibition of compounds of the present invention against mutant HIV reverse transcriptase. In one strain the reverse transcriptase has the Y181C mutation and in the other strain the reverse transcriptase has the K103N mutation. The mutations were generated with the […] site-directed mutagenesis kit (Stratagene).

[2] = biological target: T2, mutant HIV reverse transcriptase, K103N mutation (Human immunodeficiency virus type 1 group M subtype B, UniProt P04585, K690N); test: Analogous RT inhibition assay, K103N mutant; format: biochemical; conditions: tested up to 20 micromolar
T2 construct: made in house
Description: as §1, §2

Row | Substance | IC50 [1] | IC50 [2]
1 | 5-chloro-2-[5-(2-chlorophenyl)-l,2,4-oxadiazol-3-yl]-3-(phenylsulfonyl)-1H-indole [Example 5] | > 20 µM | > 20 µM
2 | 1-{2-[5-bromo-3-pyrrolidin-1-ylsulfonyl)-1H-indol-2-yl]-1H-imidazol-4-yl}propan-1-ol [Example 20] | – | < 1 µM
3 | 5-chloro-3-(phenylsulfonyl)-2-(5-propyl-l,2,4-oxadiazol-3-yl)-1H-indole [Example 6] | > 20 µM | > 20 µM
